Measurements: publication PMC9909437
These are yes or no findings as the source states them, for the method shown. Binding seen in cells or lysates may run through a third protein.

Chains of the proteins cited; added tags and fusions are not shown.
UniProt Q9WV60: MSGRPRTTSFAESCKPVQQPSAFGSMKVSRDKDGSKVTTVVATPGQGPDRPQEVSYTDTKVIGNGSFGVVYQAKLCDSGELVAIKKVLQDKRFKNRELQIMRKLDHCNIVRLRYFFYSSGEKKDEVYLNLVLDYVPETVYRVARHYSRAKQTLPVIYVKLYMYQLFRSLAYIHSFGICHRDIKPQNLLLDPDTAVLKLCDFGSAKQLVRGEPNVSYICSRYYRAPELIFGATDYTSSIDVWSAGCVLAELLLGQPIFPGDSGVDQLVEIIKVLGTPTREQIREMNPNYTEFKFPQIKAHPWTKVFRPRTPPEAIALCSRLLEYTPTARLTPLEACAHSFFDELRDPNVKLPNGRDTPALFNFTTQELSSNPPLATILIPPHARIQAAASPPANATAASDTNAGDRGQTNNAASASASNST

Target: glycogen synthase kinase 3β (GSK3β) (mouse (endogenous in hippocampus)) (UniProt Q9WV60)
Assay: co-IP; endogenous kinase immunoprecipitated from hippocampal lysates of THY-Tau22 and littermate mice (12 months; non-injected, also AAV-Venus or AAV-APPsα injected) with α-CDK5 (Protein G beads) or α-GSK3β (Protein A beads); lysis buffer 0.05 M Tris-HCl pH 7.5, 0.25 M NaCl, 10 mM EDTA, 0.1% NP-40; 4°C; Western blot of the precipitate after the kinase reaction

cyclin dependent kinase 5 (CDK5) (from UniProt P49615 1-292) (enzyme)
binding: no binding
